## Primary screen of a compound library

By UniProt entry, the sequences of proteins in these tests, tags left out. Residues count along the entry.
UniProt P9WFT3, whole entry: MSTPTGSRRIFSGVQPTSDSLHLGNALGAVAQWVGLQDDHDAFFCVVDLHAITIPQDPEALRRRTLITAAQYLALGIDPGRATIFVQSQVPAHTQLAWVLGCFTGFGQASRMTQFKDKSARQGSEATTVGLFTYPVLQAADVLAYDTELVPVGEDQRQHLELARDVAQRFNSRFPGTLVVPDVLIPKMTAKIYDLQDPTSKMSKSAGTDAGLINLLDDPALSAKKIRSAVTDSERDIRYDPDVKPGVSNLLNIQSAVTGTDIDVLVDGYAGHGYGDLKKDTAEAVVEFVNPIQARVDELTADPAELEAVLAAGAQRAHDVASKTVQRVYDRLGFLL
UniProt A4I591, 1-473: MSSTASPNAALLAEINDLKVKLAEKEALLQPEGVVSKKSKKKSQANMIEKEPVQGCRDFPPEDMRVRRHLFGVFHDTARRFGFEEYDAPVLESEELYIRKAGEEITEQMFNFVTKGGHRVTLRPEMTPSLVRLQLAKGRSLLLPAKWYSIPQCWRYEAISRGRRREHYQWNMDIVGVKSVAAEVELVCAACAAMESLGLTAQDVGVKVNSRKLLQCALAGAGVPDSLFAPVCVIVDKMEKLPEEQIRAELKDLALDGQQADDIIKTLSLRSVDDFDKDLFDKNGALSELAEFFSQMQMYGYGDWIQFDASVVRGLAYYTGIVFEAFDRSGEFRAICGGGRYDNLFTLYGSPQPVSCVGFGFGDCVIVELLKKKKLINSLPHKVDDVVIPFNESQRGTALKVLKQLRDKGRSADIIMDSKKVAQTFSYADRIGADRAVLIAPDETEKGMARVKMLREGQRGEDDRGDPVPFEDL

A: 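Enzyme assay of tryptophanyl-tRNA synthetase; the read-out is not stated. Target: Tryptophan-tRNA ligase, Mycobacterium tuberculosis (UniProt P9WFT3). Tested at 10 µM. Direction is not recorded; retested compounds ran higher, which suggests that high means inhibition. Size under these conditions: about 65,000 compounds, about 64 of them at 50% or above in at least one test.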
B: 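Enzyme assay of histidyl-tRNA synthetase; the read-out is not stated. Target: Histidine-tRNA ligase, Leishmania infantum (UniProt A4I591). Tested at 30 µM. Higher reads as stronger inhibition (inferred: compounds with an IC50 in retests scored well above the rest). The assay is labelled LdHisRS but filed under L. infantum. Of about 69,000 compounds tested this way, about 410 (0.6%) reached 50% or more in at least one test.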

Values are the deposited “Percent Effect”, in %. How 0% and 100% were set is not recorded. Most values in the screen are low, and negative values occur. This is an unselected part of the compounds tested.

- CC(NC(=O)Cn1cc(-c2ccccc2)cn1)C1CC1 (stereo not shown) : A: 2.224%; B: 8.772%
- CC(=O)N1C[C@H]2CNC[C@@]2(C(=O)NCCCOc2cccnc2)C1 : A: 3.465%; B: 11.48%
- CCc1c(C)sc2nc3n(CC(N)=O)nc(SC)n3c(=O)c12 : A: -2.847%; B: 17.5%
- O=C(NC1CCCN(c2ncccn2)C1)c1cn2ccccc2n1 (stereo not shown) : A: 2.815%; B: 3.306%
- Cc1cc(N2CCC(CC(N)=O)CC2)nc(-c2ccncc2)n1 : A: 0.5136%; B: 15.62%
- Cc1ccc(CNC(=O)N2CCN(S(C)(=O)=O)CC2)n1C : A: -0.5187%; B: 11.4%
- O=C(CCn1nc(C(=O)Nc2ccccc2)ccc1=O)Nc1nccs1 : A: -3.053%; B: 13.7%
- Cc1ccc(-c2ccnc(NC(C)c3n[nH]c(C)n3)n2)c(C)n1 (stereo not shown) : A: -0.764%; B: -1.667%
- CCOC(=O)c1ccc(S(=O)(=O)NCc2cccnc2N(C)C)cc1 : A: 7.794%; B: 3.39%
- COc1ccc(-n2nnc(C(=O)NC(C)C)c2C2CC2)cc1 : A: -4.55%; B: 6.731%
- CC/N=c1\nc(NCC)nc2n1C(O)(Nc1cccc(C)c1C)CS2 (stereo not shown) : A: -0.6958%; B: 10.87%
- COCCOCC(=O)Nc1nc2c(OC)cc(F)cc2s1 : A: -1.943%; B: 5.181%
- Cc1cc(CNC(=O)NC(C)c2ccc(N3CCOCC3)cc2)no1 (stereo not shown) : A: -2.568%; B: 8.491%
- CCn1cc(CNc2ccc(N(C)CCOC)cn2)cn1 : A: -2.374%; B: 20%
- O=C(CNCCn1cccn1)NCC1(c2ccccc2)CCOCC1 : A: -5.141%; B: 16.81%
- COc1cccc(CN2CCCCC2c2n[nH]cc2-c2cc(C)no2)c1 (stereo not shown) : A: 3.171%; B: 4.286%
- COc1nc2cc(C)ccc2cc1CN(C)Cc1cc(C)[nH]n1 : A: -8.569%; B: 14.49%
- O=C(NC(CC(F)(F)F)c1ccc(Cl)cc1)c1nc(=O)[nH][nH]1 (stereo not shown) : A: 1.715%; B: 9.859%
- O=C(COc1coc(CN2CCOCC2)cc1=O)Nc1ccc(Cl)cc1 : A: -0.3502%; B: 18.42%
- Cc1ccc2nc3n(c2c1)[C@@H](CNCc1nccs1)COC3 : A: -4.182%; B: 25%
- CCC(CO)NCc1ccc(-c2ccc(F)cc2)o1 (stereo not shown) : A: 3.344%; B: 12.64%
- COc1ccc(C2(NC(=O)CCn3cncn3)CCCCC2)cc1 : A: 2.425%; B: 16.67%
- CC(O)CN1CCN(C(=O)c2cccn2Cc2ccccc2)CC1 (stereo not shown) : A: 0.5191%; B: 3.571%

From ChEMBL document CHEMBL3988442, “University of Dundee, Small-Polar-MMV Screening Library” (2021).